Experimental data as given in PMC5744018.
These are yes or no findings as the source states them, for the method shown. Binding calls can cover weak binding; strength is not graded here. Sequences can lack the tags named with a protein.

Biological target: T1, ANK6 (amino acid residues 21-174) fused to the GAL4 DNA-binding domain (Arabidopsis thaliana) (UniProt Q9FNP4)
T1 sequence: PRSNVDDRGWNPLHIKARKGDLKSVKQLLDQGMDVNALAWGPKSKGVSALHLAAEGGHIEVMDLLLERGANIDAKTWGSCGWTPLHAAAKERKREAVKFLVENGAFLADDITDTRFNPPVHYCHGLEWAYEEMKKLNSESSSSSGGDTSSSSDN
Experiment: two-hybrid; directed test; AH109 cotransformed with pGADT7 (RPS9M CDS and truncated variants) and pGBKT7 (ANK6) constructs; growth on SD-LWHA, 30°C, 2-3 days

“C-terminus Ribosomal_S9 domain of RPS9M fused to the GAL4 activation domain (Arabidopsis thaliana) (domain or fragment)” was tested, and the binding was “binds”.
